From patent US20210292814
For at least one entry, the source does not settle the construct or the ends of the probe.

tested on: lactoferrin; experiment: FP; conditions: 250 nM FITC-aptamer with 25 ug/mL lactoferrin, 37 C 15 min; purified native protein; protein details: spotted on glass microarray for selection; label: FITC; single-stranded DNA

Sequence	binding result
AGGCAGGACACCGTAACCGGTGCATCTATGGCTACTAGCTTTTCCTGCCT [N2]	binds

same assay, conditions: linear FP detection of lactoferrin, 37 C 15 min; purified native protein; protein details: spotted on glass microarray for selection; label: FITC; single-stranded DNA

Sequence	binding result
GGCAGGACACCGTAACCAGTATAGGTGCATTTTTGGCGCAAGCTCTTCCTGCCCTG [N31]	binds
GCAGGACACCGTAACTCGGGCAAAGCTCTGAATAATGTTCAACCAATATTCTGTCCTGC [N6]	binds
GGCAGGACACCGTAACCCCTAGTTCCTGGTGCATTTATGGCAAAGCTTTTCCTGCC [N16]	binds
GCAGGACACCGTAACACTGCTTTATCCCCGTCGGCTTGGCTCTTCGACAGTGTGGCTGC [N14]	binds

tested on: lactoferrin; experiment: SELEX; conditions: microarray chip selection, 7 rounds, PBS, room temperature; purified native protein; protein details: spotted on glass microarray for selection; single-stranded DNA

Sequence	selection result
GCAGGACACCGTAACCCTAACACGTACGGGGCATTTATGGCATAGCTCTTCCTCCCTGC [SEQ ID NO 5]	selected

same assay, conditions: microarray chip selection, 7 rounds; purified native protein; protein details: spotted on glass microarray for selection; single-stranded DNA

Sequence	selection result
AGCAGACGGGAGACCTTTAGAGTTGTAACTTGAGTCTGCT [SEQ ID NO 19]	selected
TGACAGGCAGGACACCGTAACAACCAACCTACGGTGCAATATTTGGCGGATTAAGCTCTTCCTGCTACCTCCCTCCTCTTCA [SEQ ID NO 45]	selected
TGACAGGCAGGACACCGTAACAACAACTCGATACTGGTGCCATTTTGGGCGAACGCTTTTCCTGCTACCTCCCTCCTCTTCA [SEQ ID NO 44]	selected
AGGCAGGACACCGTAACGGTGCGTGTACACGGCTCTGCTTTTCCTGCCT [SEQ ID NO 43]	selected
GCAGGACACCGTAACACTACCTTCTTTCGGTGCGATCCATTCGGCTTTGCTTTTCCTGC [SEQ ID NO 31]	selected
TGACAGGCAGGACACCGTAACGGGCAATCTTGCTCTTATTTTCACACCTGATAAATATGTCCTGCTACCTCCCTCCTCTTCA [SEQ ID NO 51]	selected
TGACAGGCAGGACACCGTAACACGGGGCAATTTTGGTGAAGCTCTTCCTGCCCAGCCTACTCTGCTACCTCCCTCCTCTTCA [SEQ ID NO 58]	selected
TGACAGGCAGGACACCGTAACCATACTTCGGTGCATCCCATGGCGAATTCGCTCTTCCTTCCTGCTACCTCCCTCCTCTTCA [SEQ ID NO 49]	selected
CAGGCAGGACACCGTAACCGGGCATTTGCTCTCAATTTAGTCTCAAATTGTGGCCTGCCTG [SEQ ID NO 21]	selected
GGCAGGACACCGTAACCATCGACGGTGCCGGTCTCGGGCATTTTGCTCTTCCTGCC [SEQ ID NO 36]	selected
GCAGGACACCGTAACGGGCGGAGCTCTTCCATTTCAGATTTGTAAATGGATGTCACTGC [SEQ ID NO 24]	selected
TGACAGGCAGGACACCGTAACGGTGCGGTCATATCCGGCTTTGCTTTTCCTGCCTTCTCTCCTGCTACCTCCCTCCTCTTCA [SEQ ID NO 64]	selected
GGCAGGACACCGTAACCCCTAGTTCCTGGTGCATCTATGGCAAAGCTCTTCCTGCC [SEQ ID NO 38]	selected
TGACAGGCAGGACACCGTAACACGGTGCAAACTCTTGGCGAATGCTTTTCCTGACCCGCTACTGCTACCTCCCTCCTCTTCA [SEQ ID NO 47]	selected
GCAGGACACCGTAACAATACTCCTGTTACCGTGCATCTATGGCCATTGGCTTTTCCTGC [SEQ ID NO 11]	selected
AGGCAGGACACCGTAACTGAACGGTCTTGGCTACTGCACATTTTTCCTGCCT [SEQ ID NO 29]	selected
TGACAGGCAGGACACCGTAACCGGGCGGAGCTCTTATTACATCAACTCGCTGTAATATGGCCTGCTACCTCCCTCCTCTTCA [SEQ ID NO 50]	selected
TGACAGGCAGGACACCGTAACGTAACTACGGACGGCATCTATGGCTATGCTCTTGTCCCTGCTGCTACCTCCCTCCTCTTCA [SEQ ID NO 55]	selected
GCAGGACACCGTAACACTCTCAACCATGACGGTGCAATATTGGCGCTAGCTCTTCCTGC [SEQ ID NO 13]	selected
GCAGGACACCGTAACACGGGCTCTGCTTTTCCAATAATGACAAGTATTGGATGGCCTGC [SEQ ID NO 12]	selected
GCAGGACACCGTAACGTTCGTAACAACACGGCATCTATGGCTTTAGCTCTTGTACCTGC [SEQ ID NO 15]	selected
TGACAGGCAGGACACCGTAACACACGTTAACTTACGGCGCATTTTTTGGCTTCAGCTCTTCCTGCTACCTCCCTCCTCTTCA [SEQ ID NO 46]	selected
AGGCAGGACACCGTAACGGTGCATCTATGGCTTTGCTCTTCCTACCTGTTCTACGAGCTGCTACCTCCCT [SEQ ID NO 42]	selected
GCAGGACACCGTAACACGGGCTGATGCTCTCTTTATTTTACCTAAATAAAGTGTCCTGC [SEQ ID NO 17]	selected
GGCAGGACACCGTAACCCCACTCGAGGTGCAATTTTGGCGTGAGCTCTTCCTGCC [SEQ ID NO 37]	selected
AGGCAGGACACCGTAACCTACAACGGTGCCATCTATGGGCTTTGCTTTTCCTGCCT [SEQ ID NO 40]	selected
GCAGGACACCGTAACGGGCGAACGCTCTAAATAAATGGCATCAATTTCTTTTGCCCTGC [SEQ ID NO 8]	selected

Sequence	selection result
GCAGGACACCGTAACGGGCTTATGCTCTTAAAAATCCTGAGCGACTTTTTATGTACTGC [SEQ ID NO 9]	selected
GCAGGACACCGTAACACTGCTTTATCCCCGTCGGCTTGGCTCTTCGACAGTGTTGCTGC [SEQ ID NO 32]	selected
GCAGGACACCGTAACGTATTAACTAGTACCAGTGCATCTATGGCTATTGCTTTTCCTGC [SEQ ID NO 14]	selected
AGGCAGGACACCGTAACACCGGTGCGTCCCACGGCTCCAGCTCTTCCTGCCT [SEQ ID NO 16]	selected
CAGGCAGGACACCGTAACGGTGCAATTATTGGTGAACACTCTTCCTTAGCCTGCTACTCTG [SEQ ID NO 27]	selected
TGACAGGCAGGACACCGTAACGGGTAACACTCTACTTATACCTTGCTATAAGTTGTCCGCACTGCTACCTCCCTCCTCTTCA [SEQ ID NO 53]	selected
TGACAGGCGGGACACCGTAACCCCAACACGTACGGGGCATTTATGGCATAGCTCTTCCTCCCTGCTACCTCCCTCCTCTTCA [SEQ ID NO 65]	selected
GCAGGACACCGTAACGGGTGCACACTCTTATTTTTACACGAGCCAAAAATATGTCCTGC [SEQ ID NO 26]	selected
TGACAGGCAGGACACCGTAACGGGCTCTGCTCTAAATTTCGCCCTTGCACGAAATTTTGTCCTGCTACCTCCCCCCTCTTCA [SEQ ID NO 62]	selected
TGACAGGCAGGACACCGTAACTTCTGATAATCGGTGCATCTATGGCGTAGCTCTTCCTCACCTGCTACCTCCCTCCTCTTCA [SEQ ID NO 57]	selected
GCAGGACACCGTAACGGGCAATCTTGCTCTTATTTTCACACTTGATAAATATGTCCTGC [SEQ ID NO 7]	selected
TGACAGGCAGGACACCGTAACGGGCGAATGCTCTCTTTGTTTTATATATAACAAAGTGTCTCTGCTACCTCCCTCCTCTTCA [SEQ ID NO 61]	selected
TGACAGGCAGGACACCGTAACTACCTCTTCCATATCGGTGCAACATTTGGCTTAGCTCTTCCTGCTACCTCCCTCCTCTTCA [SEQ ID NO 56]	selected
TGACAGGCAGGACACCGTAACGCGGGCGAAGCTCTTAATACCTCTCTATTATGTCCTGTTCCTGCTACCTCCCTCCCCTTCA [SEQ ID NO 60]	selected
GCAGGACACCGTAACTCATCCCAAGCTCCGGTGCCATCTATGGGCTTCGCTTTTCCTGC [SEQ ID NO 28]	selected
TGACAGGCAGGACACCGTAACGGGTTTAACTCTCAAATTAGCTCTGCACTACATTTGTGCCCTGCTACCTCCCTCCTCTTCA [SEQ ID NO 54]	selected
TGACAGGCAGGACACCGTAACATACGATTCTCTCGCACATTGTGGCTCCGCTTTTATGTTACTGCTACCTCCCTCCTCTTCA [SEQ ID NO 48]	selected
GCAGGACACCGTAACGGGCGAACGCTCTTTATTTTGGAACCCACAAAATAATGTTCTGC [SEQ ID NO 23]	selected
GGCAGGACACCGTAACCCCTAGTTCCTGGTGCATTTATGGCAAAGCTCTTCCTGCC [SEQ ID NO 39]	selected
TGACAGGCAGGACACCGTAACCGGGCTATTGCTCTCAAACTTACACTTTAACGTTTGGGTCCTGCTACCTCCCTCCTCTTCA [SEQ ID NO 59]	selected
GCAGGACACCGTAACGGGCTATGCTCTAAATTCTTCCTACTGACGCAATTTTGGACTGC [SEQ ID NO 25]	selected
TGACAGGCAGGACACCGTAACGGGCTTATGCTCTTAAAAATCCTGAGCGACTTTTTATGTACTGCTACCTCCCTCCTCTTCA [SEQ ID NO 63]	selected
TGACAGGCAGGACACCGTAACGGGCTTAGCTCTAAATCAAATCCTCCTTATTGATTTTGTCCTGCTACCTCCCTCCTCTTCA [SEQ ID NO 52]	selected
GCAGGACACCGTAACAACAACTTCGTATCCGGTGCATTTATGGCGAATGCTTTTCCTGC [SEQ ID NO 30]	selected
GCAGGACACCGTAACACTGCTTTATCCCCGTCGGCTTGTCTCTTCGACAGTGTGGCTGC [SEQ ID NO 33]	selected
AGCAGACGGGAGACTTTTAGAGTTGTAACTTGAGTCTGCT [SEQ ID NO 34]	selected

same assay, conditions: microarray chip selection, 7 rounds; shares conserved SEQ 67; purified native protein; protein details: spotted on glass microarray for selection; single-stranded DNA

Sequence	selection result
AGGCAGGACACCGTAACCGGTGCATCTATGGCTACTAGCTCTTCCTGCCT [SEQ ID NO 22]	selected
GACAGGCAGGACACCGTAACGGTGCATCCATGGCTTTTAGCTCTTCCTGAACTGTC [SEQ ID NO 41]	selected
